{"sequences": {"note": "Chains of the proteins cited; added tags and fusions are not shown.", "UniProt Q2G2U6": "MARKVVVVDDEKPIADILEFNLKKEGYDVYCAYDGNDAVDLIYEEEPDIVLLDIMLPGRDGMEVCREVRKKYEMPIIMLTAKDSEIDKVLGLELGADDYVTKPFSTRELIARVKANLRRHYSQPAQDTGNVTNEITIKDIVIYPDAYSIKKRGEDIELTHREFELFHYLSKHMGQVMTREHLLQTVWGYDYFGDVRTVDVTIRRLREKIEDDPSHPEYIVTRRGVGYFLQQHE"}, "source": "paper PMC9087282", "about": "“The W-Acidic Motif of Histidine Kinase WalK Is Required for Signaling and Transcriptional Regulation in Streptococcus mutans” (Frontiers in Microbiology, 2022)", "biological_target": "GST fusion protein with full-length S. aureus WalR (1–233) (Staphylococcus aureus NCTC8325) (UniProt Q2G2U6)", "test": "pull-down; GST-tagged WalR protein held on glutathione agarose beads, His-tagged WalK as prey, equal molar amounts (~3 μl of 50 μM each) in 1 ml of 20 mM Tris-HCl pH 8.0, 200 mM NaCl, 5% glycerol, 2 mM EDTA, 2 h at 4°C; SDS-PAGE stained with CBB; both purified", "note": "No constants are given. Whether binding was seen depends on the method and setting."}
{"substance": "S. aureus WalK (364–608) Δtail (the last 7 amino acids deleted) (from UniProt Q2G2U4 364-601) (domain or fragment)", "values": [{"measurement": "binding", "result": "no binding"}]}
